Survivor count and T/C data for 24 molecules are collected here from PubChem BioAssay AID248 (DTP/NCI, 2004).

The list is a part of this screen's results and no random one: it is rich in T/C values a quarter to a half above the control, in often repeated tests (any T/C) and in doses without a T/C. Other doses and runs of a compound stand elsewhere. T/C: endpoint of the treated group in % of that of the vehicle group. Some doses have a count of surviving animals in place of a T/C: the source holds a T/C of zero for them, seemingly a mark for toxic or unscored doses. Some survivor counts are full or nearly so, which does not show that the dose was tolerated: survival well below the control is almost never listed, so the zero probably covers shortened survival too. Survivors were counted at the toxicity check, usually on the fifth day, unless a day is given; later deaths do not show. Schedule codes are those of the source, taken here to give the interval after Q, in days (D) or hours (H), and the number of doses after X. Some schedule codes hold Z or #, which are not explained here. For survival time, this PubChem deposit counts one and a half times the control or more as active, and values a quarter to a half above the control carry no call in these data; other NCI protocols may use other cut-offs. Some entries were tested several times; the values are given in rising order.

This assay concerns L1210 leukemia ip in BDF1 mice, survival T/C. The assay can be described thus: NCI In Vivo Anticancer Drug Screen. Data for tumor model L1210 Leukemia (intraperitoneal) in B6D2F1 (BDF1) mice. Particulars: T/C endpoint: mean survival time, higher T/C = longer survival.
Where [1] appears, read: dose: 200.0 mg/kg/injection, schedule: Q01DX009 (ip), vehicle: saline with Tween-80.
Setting [2] is: dose: 400.0 mg/kg/injection, schedule: Q04DX003 (ip), vehicle: saline with Tween-80.
Where [3] appears, read: dose: 400.0 mg/kg/injection, schedule: Q01DX001 (ip), vehicle: other.
Where [4] appears, read: dose: 300.0 mg/kg/injection, schedule: Q01DX001 (ip), vehicle: saline.
Where [5] appears, read: dose: 15.0 mg/kg/injection, schedule: Q01DX Z (ip), vehicle: saline.
Where [6] appears, read: dose: 400.0 mg/kg/injection, schedule: Q01DX001 (ip), vehicle: saline.
[7] abbreviates: dose: 150.0 mg/kg/injection, schedule: Q01DX001 (ip), vehicle: carboxymethylcellulose (CMC).
[8] abbreviates: dose: 300.0 mg/kg/injection, schedule: Q01DX001 (ip), vehicle: carboxymethylcellulose (CMC).
Where [9] appears, read: dose: 200.0 mg/kg/injection, schedule: Q04DX003 (ip), vehicle: saline.
Setting [10] is: dose: 400.0 mg/kg/injection, schedule: Q04DX003 (ip), vehicle: saline.

As for `N#CSc1c[nH]c2ccccc12`, the survivor count under setting [1] is listed as 4 of 6 and the survivor count under setting [2] is recorded as 0 of 6.
With `O=NN(CCF)C(=O)NC1C2CC3CC(C2)CC1C3` (stereo not drawn), the survivor count runs as follows: (dose: 100.0 mg/kg/injection, schedule: Q01DX001 (ip), vehicle: other) 5 of 10; (dose: 200.0 mg/kg/injection, schedule: Q01DX001 (ip), vehicle: other) 0 of 10; under setting [3], 0 of 10.
In the case of `ClCCCNCCCCl`, the survivor count under setting [4] was 2 of 6.
With `CC1CNC(c2ccc(NC(=O)c3ccc(C(=O)Nc4ccc(C5=NC(C)CN5)cc4)c(NC(=O)Nc4cccc(C5=NC(C)CN5)c4)c3)cc2)=N1` (stereo not drawn), the T/C (dose: 3.75 mg/kg/injection, schedule: Q01DX Z (ip), vehicle: saline) is 147 % of control. Also, the survivor count is 0 of 6 under setting [5]; 0 of 6 (dose: 30.0 mg/kg/injection, schedule: Q01DX Z (ip), vehicle: saline); 0 of 6 (dose: 60.0 mg/kg/injection, schedule: Q01DX Z (ip), vehicle: saline); 0 of 6 (dose: 120.0 mg/kg/injection, schedule: Q01DX Z (ip), vehicle: saline); 3 of 6 (dose: 500.0 mg/kg/injection, schedule: Q01DX010 (oral), vehicle: saline).
`CCN(CC)CCCC(C)NC/C=C/CNC(C)CCCN(CC)CC` (stereo not drawn): the survivor count is reported as 0 of 6 (dose: 50.0 mg/kg/injection, schedule: Q01DX009 (ip), vehicle: water); 2 of 6 (dose: 50.0 mg/kg/injection, schedule: Q04DX003 (ip), vehicle: water); 0 of 6 (dose: 100.0 mg/kg/injection, schedule: Q01DX009 (ip), vehicle: water); 0 of 6 (dose: 100.0 mg/kg/injection, schedule: Q04DX003 (ip), vehicle: water); 1 of 6 (dose: 200.0 mg/kg/injection, schedule: Q04DX003 (ip), vehicle: water); 0 of 6 (dose: 400.0 mg/kg/injection, schedule: Q04DX003 (ip), vehicle: water).
For `N#CCN1Cc2ccccc2CCc2ccccc2C1`, the survivor count (dose: 400.0 mg/kg/injection, schedule: Q04DX003 (ip), vehicle: Klucel (hydroxypropylcellulose) (HPC)) is 2 of 6.
For `O=C(Nc1ccc(C(=O)Nc2ccc(C3=NCCN3)cc2)cc1)Nc1ccc(C2=NCCN2)cc1`, the T/C (dose: 15.0 mg/kg/injection, schedule: Q01DX Z (ip), vehicle: carboxymethylcellulose (CMC)) is 140 % of control; the T/C under setting [5] was 128 % of control; the T/C (dose: 120.0 mg/kg/injection, schedule: Q01DX Z (sc), vehicle: saline) is 125 % of control; the T/C (dose: 480.0 mg/kg/injection, schedule: Q01DX Z (sc), vehicle: saline) is 139 and 142 % of control; the T/C (dose: 960.0 mg/kg/injection, schedule: Q01DX Z (sc), vehicle: saline) was 132 % of control. Moreover, the survivor count runs as follows: (dose: 240.0 mg/kg/injection, schedule: Q01DX Z (ip), vehicle: saline) 2 of 6; (dose: 480.0 mg/kg/injection, schedule: Q01DX Z (ip), vehicle: saline) 0 of 6.
Consider `CSc1ncnc2c1cnn2C1OC(CCC#N)C(O)C1O` (stereo not drawn), for which the survivor count under setting [6] was 2 of 6.
Consider `CC(C)(CO)COS(=O)(=O)c1ccc(Br)cc1`, for which the survivor count (dose: 100.0 mg/kg/injection, schedule: Q01DX009 (ip), vehicle: saline with Tween-80) is recorded as 3 of 3 and the survivor count under setting [1] is on record as 3 of 3.
`CCCNc1ncc(C(=O)O)c(=O)[nH]1`: the survivor count (dose: 200.0 mg/kg/injection, schedule: Q04DX003 (ip), vehicle: saline with Tween-80) is given as 3 of 6 and the survivor count under setting [2] is 3 of 6.
Turning to `COc1cc(-c2ccc(-[n+]3nc(-c4ccc([N+](=O)[O-])cc4)nn3-c3ccc([N+](=O)[O-])cc3)c(OC)c2)ccc1-[n+]1nc(-c2ccc([N+](=O)[O-])cc2)nn1-c1ccc([N+](=O)[O-])cc1`, the survivor count was 1 of 6 (dose: 75.0 mg/kg/injection, schedule: Q01DX001 (ip), vehicle: carboxymethylcellulose (CMC)); 1 of 6 under setting [7]; 0 of 6 under setting [8].
Consider `Cn1c(O)c(C=N)c(=O)n(C)c1=O`, for which the survivor count under setting [9] was 3 of 6 and the survivor count under setting [10] is reported as 0 of 6.
With `O=C(NCCCl)NC1c2ccccc2-c2ccccc21`, the survivor count (dose: 200.0 mg/kg/injection, schedule: Q04DX003 (ip), vehicle: Klucel (hydroxypropylcellulose) (HPC)) was 6 of 6.
Consider `Nc1ncnc2c1ncn2C(/C=N/Nc1ccccc1)OC(/C=N\Nc1ccccc1)CO` (stereo not drawn), for which the survivor count under setting [3] is reported as 1 of 6.
`c1cc2c(cc1CNC1CCCCC1)OCO2`: the survivor count (dose: 150.0 mg/kg/injection, schedule: Q01DX001 (ip), vehicle: saline) was 2 of 6 and the survivor count under setting [4] is on record as 1 of 6.
Consider `CC(C)N=Cc1ccccc1O.CC(C)N=Cc1ccccc1O.[Ni]`, for which the survivor count is recorded as 2 of 6 under setting [9] and 0 of 6 under setting [10].
On to `CC(=O)Nc1cccc(Br)c1`, for which, for the setting “dose: 50.0 mg/kg/injection, schedule: Q01DX009 (ip), vehicle: Klucel (hydroxypropylcellulose) (HPC)”, the survivor count is recorded as 3 of 3.
`OC1C=Cc2ccccc21` (stereo not drawn): the survivor count (dose: 400.0 mg/kg/injection, schedule: Q04DX002 (ip), vehicle: other) is given as 0 of 3.
As for `S=c1nc[nH]c2c1ncn2Cc1ccc(Cl)c(Cl)c1`, the T/C (dose: 100.0 mg/kg/injection, schedule: Q04DX002 (ip), vehicle: Klucel (hydroxypropylcellulose) (HPC)) is 127 % of control.
As to `Cc1cc(C)cc(OCC2C(COC(=O)c3cccc(Cl)c3)c3ccccc3N2C)c1` (stereo not drawn), the survivor count (dose: 400.0 mg/kg/injection, schedule: Q01DX009 (ip), vehicle: Klucel (hydroxypropylcellulose) (HPC)) was 4 of 6.
As to `CS(=O)(=O)OCCN(CCOS(C)(=O)=O)c1cccc(F)c1`, the T/C is, setting by setting: (dose: 10.0 mg/kg/injection, schedule: Q01DX001 (ip), vehicle: saline) 125 % of control; (dose: 40.0 mg/kg/injection, schedule: Q01DX001 (ip), vehicle: saline) 145 % of control; under setting [6], 135 % of control. Also, the survivor count (dose: 178.0 mg/kg/injection, schedule: Q01DX001 (ip), vehicle: saline) was 0 of 6; the survivor count (dose: 267.0 mg/kg/injection, schedule: Q01DX001 (ip), vehicle: saline) was 0 of 6; the survivor count under setting [6] is reported as 0 of 6; the survivor count (dose: 600.0 mg/kg/injection, schedule: Q01DX001 (ip), vehicle: saline) is on record as 0 of 6.
Consider `CC(=O)CC(=O)C(F)(F)F.[O]=[U]=[O]`, for which the survivor count runs as follows: (dose: 12.5 mg/kg/injection, schedule: Q01DX009 (ip), vehicle: gum acacia) 3 of 3; (dose: 25.0 mg/kg/injection, schedule: Q01DX005 (ip), vehicle: gum acacia) 3 of 3; (dose: 25.0 mg/kg/injection, schedule: Q01DX009 (ip), vehicle: gum acacia) 2 of 3; (dose: 50.0 mg/kg/injection, schedule: Q04DX002 (ip), vehicle: gum acacia) 1 of 3; (dose: 100.0 mg/kg/injection, schedule: Q04DX002 (ip), vehicle: gum acacia) 0 of 3; (dose: 200.0 mg/kg/injection, schedule: Q04DX002 (ip), vehicle: gum acacia) 0 of 3. Further, where the note is “dose: 400.0 mg/kg/injection, schedule: Q04DX002 (ip), vehicle: gum acacia”, the survivor count is 0 of 3.
For the molecule `CCOC(=O)C(Cc1ccc2ccccc2n1)C(C)=O` (stereo not drawn), the survivor count (dose: 200.0 mg/kg/injection, schedule: Q01DX009 (ip), vehicle: DMSO) is given as 1 of 3.
As to `CCOP(=O)(OCC)N1CC1c1ccccc1` (stereo not drawn), the survivor count reads like this: under setting [7], 0 of 6; under setting [8], 0 of 6.
